{
  "source": "PubChem BioAssay AID248",
  "about": "(DTP/NCI, 2004)",
  "tested_on": "L1210 leukemia ip in BDF1 mice, survival T/C",
  "assay": "NCI In Vivo Anticancer Drug Screen. Data for tumor model L1210 Leukemia (intraperitoneal) in B6D2F1 (BDF1) mice",
  "conditions": "T/C endpoint: median survival time, higher T/C = longer survival",
  "note": "The list is a part of this screen's results and no random one: it gathers tests that were run many times, whatever their T/C, doses with no T/C, and many T/C values between a quarter and a half above the control. Other doses and runs of a compound stand elsewhere. T/C: endpoint of the treated group in % of that of the vehicle group. Some entries give survivors of the animals treated and no T/C: the source files T/C as zero there, which appears to mark a toxic dose or a test without result, not a measured value. Some survivor counts are full or nearly so, which does not show that the dose was tolerated: the source hardly ever lists a survival T/C far under the control, and the zero likely stands for such cases as well. Survivors were counted at the toxicity check, usually on the fifth day, unless a day is given; later deaths do not show. Schedules are NCI's codes, taken here to give the interval after Q, in days (D) or hours (H), and the number of doses after X. Some entries were tested several times; the values are given in rising order. Additions like (4×) give the number of equal values in this list. Where survival is the endpoint, the PubChem record calls one and a half times the control and up active, and a quarter to a half above the control has no call in these data; cut-offs in other NCI protocols can differ. Some T/C values carry the count of animals alive at the toxicity check (mostly the fifth day); where none is given, no animal had died by that day. Some schedule codes hold Z or #, which are not explained here.",
  "data": [
    {"smiles": "COc1cccc2c1C(=O)c1c(O)c3c(c(O)c1C2=O)C[C@@](O)(C(=O)CO)C[C@@H]3OC1CC(N)C(O)C(C)O1", "note": "(some centres undefined)", "values": [
      {"measurement": "T/C", "setting": "dose: 1.8 mg/kg/injection, schedule: Q04DX003 (ip), vehicle: water, evaluated on day 40", "result": "104 % of control"},
      {"measurement": "T/C", "setting": "dose: 1.8 mg/kg/injection, schedule: Q04DX003 (ip), vehicle: water, evaluated on day 60", "result": "100 (3×), 104, 117, 125, 126 % of control"},
      {"measurement": "T/C", "setting": "dose: 1.8 mg/kg/injection, schedule: Q04DX003 (ip), vehicle: water, evaluated on day 90", "result": "133 % of control"},
      {"measurement": "survivor count", "setting": "dose: 1.8 mg/kg/injection, schedule: Q04DX003 (ip), vehicle: water", "result": "1 of 8"},
      {"measurement": "T/C", "setting": "dose: 2.0 mg/kg/injection, schedule: Q01DX001 (ip), vehicle: saline, evaluated on day 5", "result": "118, 122, 131, 135, 137, 141, 146 % of control"},
      {"measurement": "T/C", "setting": "dose: 2.0 mg/kg/injection, schedule: Q01DX001 (ip), vehicle: saline, evaluated on day 30", "result": "137 % of control"},
      {"measurement": "T/C", "setting": "dose: 2.0 mg/kg/injection, schedule: Q01DX001 (ip), vehicle: saline, evaluated on day 60", "result": "122, 131, 134, 135, 146 % of control"},
      {"measurement": "T/C", "setting": "dose: 2.0 mg/kg/injection, schedule: Q01DX001 (ip), vehicle: water, evaluated on day 5", "result": "117 and 127 % of control"},
      {"measurement": "T/C", "setting": "dose: 2.0 mg/kg/injection, schedule: Q01DX001 (ip), vehicle: water, evaluated on day 21", "result": "117 % of control"},
      {"measurement": "T/C", "setting": "dose: 2.0 mg/kg/injection, schedule: Q01DX001 (ip), vehicle: water, evaluated on day 30", "result": "127 % of control"},
      {"measurement": "T/C", "setting": "dose: 2.0 mg/kg/injection, schedule: Q01DX009 (ip), vehicle: water", "result": "131 % of control"},
      {"measurement": "T/C", "setting": "dose: 2.0 mg/kg/injection, schedule: Q03HX008 (ip), vehicle: water, evaluated on day 5", "result": "60 % of control"},
      {"measurement": "T/C", "setting": "dose: 2.0 mg/kg/injection, schedule: Q03HX008 (ip), vehicle: water, evaluated on day 30", "result": "93 % of control [9 of 10 alive]"},
      {"measurement": "survivor count", "setting": "dose: 2.0 mg/kg/injection, schedule: Q03HX008 (ip), vehicle: water", "result": "5 of 8 and 8 of 8"},
      {"measurement": "survivor count", "setting": "dose: 2.0 mg/kg/injection, schedule: Q03HX024 (ip), vehicle: water", "result": "7 of 8 and 10 of 10"},
      {"measurement": "T/C", "setting": "dose: 2.0 mg/kg/injection, schedule: Q04DX003 (ip), vehicle: water", "result": "129 % of control"},
      {"measurement": "T/C", "setting": "dose: 2.0 mg/kg/injection, schedule: Q## X001 (ip), vehicle: saline", "result": "141 % of control"},
      {"measurement": "T/C", "setting": "dose: 2.0 mg/kg/injection, schedule: Q##DX001 (ip), vehicle: saline", "result": "134 % of control"},
      {"measurement": "T/C", "setting": "dose: 2.5 mg/kg/injection, schedule: Q01DX001 (ip), vehicle: water, evaluated on day 5", "result": "130 (2×) and 132 % of control"},
      {"measurement": "T/C", "setting": "dose: 2.5 mg/kg/injection, schedule: Q01DX001 (ip), vehicle: water, evaluated on day 30", "result": "118 and 122 % of control"},
      {"measurement": "T/C", "setting": "dose: 2.5 mg/kg/injection, schedule: Q01DX001 (ip), vehicle: water, evaluated on day 46", "result": "133 % of control"},
      {"measurement": "T/C", "setting": "dose: 2.5 mg/kg/injection, schedule: Q01DX001 (ip), vehicle: water, evaluated on day 61", "result": "126 % of control"},
      {"measurement": "T/C", "setting": "dose: 2.5 mg/kg/injection, schedule: Q04DX003 (ip), vehicle: water, evaluated on day 5", "result": "128 % of control"},
      {"measurement": "T/C", "setting": "dose: 2.5 mg/kg/injection, schedule: Q04DX003 (ip), vehicle: water, evaluated on day 46", "result": "127 % of control"},
      {"measurement": "T/C", "setting": "dose: 2.5 mg/kg/injection, schedule: Q04DX003 (ip), vehicle: water, evaluated on day 61", "result": "131 % of control"},
      {"measurement": "T/C", "setting": "dose: 2.5 mg/kg/injection, schedule: Q08DX002 (ip), vehicle: water, evaluated on day 30", "result": "125 % of control"},
      {"measurement": "T/C", "setting": "dose: 2.5 mg/kg/injection, schedule: Q08DX002 (ip), vehicle: water, evaluated on day 61", "result": "136 % of control"},
      {"measurement": "T/C", "setting": "dose: 3.0 mg/kg/injection, schedule: Q01DX001 (ip), vehicle: water, evaluated on day 7", "result": "107 and 118 % of control"},
      {"measurement": "T/C", "setting": "dose: 3.0 mg/kg/injection, schedule: Q01DX001 (ip), vehicle: water, evaluated on day 24", "result": "122 % of control"},
      {"measurement": "T/C", "setting": "dose: 3.0 mg/kg/injection, schedule: Q01DX001 (ip), vehicle: water, evaluated on day 30", "result": "107 and 130 % of control"},
      {"measurement": "T/C", "setting": "dose: 3.0 mg/kg/injection, schedule: Q01DX001 (ip), vehicle: water, evaluated on day 33", "result": "127 % of control"},
      {"measurement": "T/C", "setting": "dose: 3.0 mg/kg/injection, schedule: Q01DX001 (ip), vehicle: water, evaluated on day 60", "result": "95 and 118 % of control"},
      {"measurement": "T/C", "setting": "dose: 3.0 mg/kg/injection, schedule: Q01DX005 (ip), vehicle: water, evaluated on day 5", "result": "96 % of control"},
      {"measurement": "T/C", "setting": "dose: 3.0 mg/kg/injection, schedule: Q01DX005 (ip), vehicle: water, evaluated on day 60", "result": "96 % of control"},
      {"measurement": "T/C", "setting": "dose: 3.0 mg/kg/injection, schedule: Q01DX005 (ip), vehicle: water, evaluated on day 90", "result": "122 % of control"},
      {"measurement": "survivor count", "setting": "dose: 3.0 mg/kg/injection, schedule: Q01DX005 (ip), vehicle: water", "result": "10 of 10 and 8 of 8"},
      {"measurement": "T/C", "setting": "dose: 3.0 mg/kg/injection, schedule: Q01DX005 (sc), vehicle: water", "result": "130 % of control"},
      {"measurement": "survivor count", "setting": "dose: 3.0 mg/kg/injection, schedule: Q01DX009 (ip), vehicle: water", "result": "8 of 8"},
      {"measurement": "T/C", "setting": "dose: 3.0 mg/kg/injection, schedule: Q03HX008 (ip), vehicle: water, evaluated on day 5", "result": "35, 51 (2×), 59, 68, 73 (3×), 75 % of control"},
      {"measurement": "T/C", "setting": "dose: 3.0 mg/kg/injection, schedule: Q03HX008 (ip), vehicle: water, evaluated on day 7", "result": "99, 105 (2×), 110, 119 % of control"},
      {"measurement": "T/C", "setting": "dose: 3.0 mg/kg/injection, schedule: Q03HX008 (ip), vehicle: water, evaluated on day 20", "result": "105 % of control"},
      {"measurement": "T/C", "setting": "dose: 3.0 mg/kg/injection, schedule: Q03HX008 (ip), vehicle: water, evaluated on day 30", "result": "110 % of control"},
      {"measurement": "T/C", "setting": "dose: 3.0 mg/kg/injection, schedule: Q03HX008 (ip), vehicle: water, evaluated on day 32", "result": "99 % of control"},
      {"measurement": "T/C", "setting": "dose: 3.0 mg/kg/injection, schedule: Q03HX008 (ip), vehicle: water, evaluated on day 60", "result": "95 and 119 % of control [7 of 8 alive]"},
      {"measurement": "T/C", "setting": "dose: 3.0 mg/kg/injection, schedule: Q03HX008 (ip), vehicle: water, evaluated on day 63", "result": "105 % of control"},
      {"measurement": "survivor count", "setting": "dose: 3.0 mg/kg/injection, schedule: Q03HX008 (ip), vehicle: water", "result": "0 of 8 (2×), 2 of 8, 4 of 8, 6 of 8 (2×), 7 of 8 (3×), 8 of 8 (2×)"},
      {"measurement": "survivor count", "setting": "dose: 3.0 mg/kg/injection, schedule: Q03HX008 (sc), vehicle: water", "result": "8 of 8"},
      {"measurement": "T/C", "setting": "dose: 3.0 mg/kg/injection, schedule: Q03HX016 (ip), vehicle: water, evaluated on day 5", "result": "64 % of control"},
      {"measurement": "T/C", "setting": "dose: 3.0 mg/kg/injection, schedule: Q03HX016 (ip), vehicle: water, evaluated on day 60", "result": "100 % of control"},
      {"measurement": "survivor count", "setting": "dose: 3.0 mg/kg/injection, schedule: Q03HX016 (ip), vehicle: water", "result": "4 of 8 and 5 of 8"},
      {"measurement": "T/C", "setting": "dose: 3.0 mg/kg/injection, schedule: Q03HX024 (ip), vehicle: water, evaluated on day 7", "result": "108 and 109 % of control"},
      {"measurement": "T/C", "setting": "dose: 3.0 mg/kg/injection, schedule: Q03HX024 (ip), vehicle: water, evaluated on day 32", "result": "109 % of control"},
      {"measurement": "T/C", "setting": "dose: 3.0 mg/kg/injection, schedule: Q03HX024 (ip), vehicle: water, evaluated on day 60", "result": "100 % of control"},
      {"measurement": "T/C", "setting": "dose: 3.0 mg/kg/injection, schedule: Q03HX024 (ip), vehicle: water, evaluated on day 63", "result": "105 % of control"}
    ]}
  ]
}
